The supplement of paper PMC9233669
Variants at the background level are over-represented here.

Tests used:
biotinyl-Val-oxazolone = assay: self-aminoacylation, catalytic enhancement (BVO) (fold over background); higher = more active; k-Seq, kA / k0A0; sequences stand for … in GGGAAUGGAUCCACAUCUACGAAUUC…UUCACUGCAGACUUGACGAAGCUG
Procedure, shortened: (§1)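 The uncatalyzed rate is the low-activity peak of a bimodal Gaussian fit, and catalytic enhancement is median kA divided by it. The kA values came from pseudo-first-order fits, with 1000 bootstraps, of per-sequence fraction reacted measured by streptavidin capture, triplicate qPCR and Illumina sequencing. Mutagenized RNA pools with a 21-nt variable region (0.43 μM) were reacted with each biotinyl-aminoacyl-oxazolone at 2–1250 μM in 50 μL HEPES/NaCl/KCl/MgCl2/CaCl2 buffer with 5% acetonitrile, pH 6.9–7.0, for 90 minutes at room temperature.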

biotinyl-Trp-oxazolone = assay: self-aminoacylation, catalytic enhancement (BWO) (fold over background); higher = more active; k-Seq, kA / k0A0; sequences stand for … in GGGAAUGGAUCCACAUCUACGAAUUC…UUCACUGCAGACUUGACGAAGCUG
Procedure, shortened: as §1

biotinyl-Met-oxazolone = assay: self-aminoacylation, catalytic enhancement (BMO) (fold over background); higher = more active; k-Seq, kA / k0A0; sequences stand for … in GGGAAUGGAUCCACAUCUACGAAUUC…UUCACUGCAGACUUGACGAAGCUG
Procedure, shortened: as §1

biotinyl-Leu-oxazolone = assay: self-aminoacylation, catalytic enhancement (BLO) (fold over background); higher = more active; k-Seq, kA / k0A0; sequences stand for … in GGGAAUGGAUCCACAUCUACGAAUUC…UUCACUGCAGACUUGACGAAGCUG
Procedure, shortened: as §1

biotinyl-Ile-oxazolone = assay: self-aminoacylation, catalytic enhancement (BIO) (fold over background); higher = more active; k-Seq, kA / k0A0; sequences stand for … in GGGAAUGGAUCCACAUCUACGAAUUC…UUCACUGCAGACUUGACGAAGCUG
Procedure, shortened: as §1

| Sequence | self-aminoacylation (biotinyl-Val-oxazolone) | self-aminoacylation (biotinyl-Trp-oxazolone) | self-aminoacylation (biotinyl-Met-oxazolone) | self-aminoacylation (biotinyl-Leu-oxazolone) | self-aminoacylation (biotinyl-Ile-oxazolone) |
| --- | --- | --- | --- | --- | --- |
| AACUAUGCUAAUAGUCGCAAG [Fam3.1 aminoacylation ribozyme variant] | 1.75 | 2 | 1.96 |  |  |
| AAGCUUGCCAAUAGUCGCAAG [Fam3.1 aminoacylation ribozyme variant] | 2.42 | 3.62 | 2.48 | 2.23 | 2.31 |
| AAGCUUGCUAAUAGUCUCAAG [Fam3.1 aminoacylation ribozyme variant] | 1.13 | 1.6 | 1.22 | 1.09 | 1.33 |
| AAGGUUGCUAAUAAUCGCAAG [Fam3.1 aminoacylation ribozyme variant] | 1.02 | 1.59 | 1.11 | 1.19 | 1.41 |
| AAGUCUGCUAAUAGUCGCAAU [Fam3.1 aminoacylation ribozyme variant] | 1.37 | 1.53 | 1.95 | 1.65 | 1.33 |
| AAGUGUGCUAAUAGUGGCAAG [Fam3.1 aminoacylation ribozyme variant] | 0.611 | 0.881 | 0.86 | 0.939 | 0.824 |
| AAGUUAGCGAAUAGUCGCAAG [Fam3.1 aminoacylation ribozyme variant] | 1.66 | 1.78 | 1.53 | 1.55 | 1.69 |
| AAGUUAGCUAAUAGUCGCAAU [Fam3.1 aminoacylation ribozyme variant] | 1.53 | 1.85 | 1.42 | 1.52 | 1.9 |
| AAGUUCGCUAAUAGUCUCAAG [Fam3.1 aminoacylation ribozyme variant] | 1.54 | 1.69 | 1.35 | 1.36 | 1.74 |
| AAGUUUGCGAAUAGCCGCAAG [Fam3.1 aminoacylation ribozyme variant] | 1.22 | 0.953 | 1.01 | 1.25 | 1.6 |
| AAGUUUGCUAACAGCCGCAAG [Fam3.1 aminoacylation ribozyme variant] | 0.847 | 1.04 | 0.787 | 1.01 | 1.22 |
| AAGUUUGCUAAUAAUCGUAAG [Fam3.1 aminoacylation ribozyme variant] | 0.932 | 1.24 | 1.03 | 0.942 | 0.912 |
| AAGUUUGCUAAUAGUCAAAAG [Fam3.1 aminoacylation ribozyme variant] | 1.07 | 1.5 | 1.35 | 1.15 | 1.35 |
| AAGUUUGCUAAUAGUUGCGAG [Fam3.1 aminoacylation ribozyme variant] | 1.26 | 1.21 | 1.28 | 1.5 | 1.3 |
| AAGUUUGCUAAUGGUCGCACG [Fam3.1 aminoacylation ribozyme variant] | 1.1 | 0.68 | 0.956 | 1.12 | 0.891 |
| AAGUUUGGUAAAAGUCGCAAG [Fam3.1 aminoacylation ribozyme variant] | 1.47 | 1.89 | 1.44 | 1.96 | 1.62 |
| AAGUUUUCCAAUAGUCGCAAG [Fam3.1 aminoacylation ribozyme variant] | 1.35 | 1.52 | 1.5 | 1.45 | 1.56 |
| AAGUUUUCUAAUAGUCGCAAU [Fam3.1 aminoacylation ribozyme variant] | 1.52 | 1.84 | 1.33 | 1.71 | 1.95 |
| AAGUUUUCUAGUAGUCGCAAG [Fam3.1 aminoacylation ribozyme variant] | 1.52 | 1.06 | 1.47 | 1.27 | 1.89 |
| AAUUUUACUAAUAGUCGCAAG [Fam3.1 aminoacylation ribozyme variant] | 1.85 | 1.52 | 1.95 | 1.81 |  |
| ACACACUUCAACCAAUCGGUC [Fam1B.1 aminoacylation ribozyme variant] | 1.56 | 26.6 | 1.65 | 2.16 | 1.69 |
| ACUACCCUGGACAUCGAGUGA [Fam2.1 aminoacylation ribozyme variant] | 2.92 | 7.37 | 7.03 | 6.83 | 2.55 |
| AGUACCCUGGUCAUCGAGUUA [Fam2.1 aminoacylation ribozyme variant] | 1.38 | 1.6 | 1.6 | 1.7 | 1.22 |
| AGUCACCUAGUUCAUCGGGUG [Fam2.2 aminoacylation ribozyme variant] | 3.29 | 5.16 | 4.14 | 4.05 | 3.71 |
| AUACGUCAAACAAUCGGUCUG [Fam1A.1 aminoacylation ribozyme variant] | 1.36 | 1.67 | 1.5 | 1.28 | 1.6 |
| AUACUUCAAACAAUCUGUCUG [Fam1A.1 aminoacylation ribozyme variant] | 1.09 | 1.43 | 1.05 | 0.821 | 1.18 |
| AUCCACCUAGGUCAUCGUGUG [Fam2.2 aminoacylation ribozyme variant] | 1.17 | 1.3 | 1.22 | 1.29 | 1.04 |
